Test results as given in patent US20090233917A1, “Stroke recovery” (priority 2006, published 2009).
At least one compound was matched to its structure with a doubt left.

System: permanent middle cerebral artery occlusion (MCAO) in rats
Assay: Functional recovery following permanent MCAO in rats (Example 1)
Format: in vivo, Sprague Dawley Rats
Description: The purpose of this study was to evaluate the efficacy of arimoclomol and iroxanadine in enhancing neurological recovery in a model of permanent middle cerebral artery occlusion (MCAO) in rats. The permanent MCAO is a well accepted and considered to be a standard animal model for studying clinical aspects of stroke. (Stroke. 1999; 30:2752-2758.)
Forty male Sprague Dawley Rats, each weighing 300-400 g, which had been housed and handled for behavioral assessment for seven (7) days prior to surgery for acclimation purposes, were operated under anesthesia to create focal cerebral infarcts by permanent occlusion of the proximal right middle cerebral artery (MCA) according to modified Tamura model. Briefly, the rats were anesthetized with 2-3% halothane in the mixture of N2O:O2 (2:1), and were maintained with 1˜1.5% halothane in the mixture of N2O:O2 (2:1). The temporalis muscle was bisected and reflected through an incision made midway between the eye and the eardrum canal. The proximal MCA was exposed through a subtemporal craniectomy without removing the zygomatic arch and without transecting the facial nerve. […] Body temperature was maintained at 37.5° C.±0.5° C. throughout the entire procedure. Cefazolin (40 mg/kg; Baxter, Lot 06014.1, Exp. January 2009) was given i.p. one day before MCAO and just after MCAO to prevent infections.
The rats were randomly divided into 4 groups of 10 animals each. […]
Animals were evaluated preoperation (day −1), then every 7 days after the operation (7, 14, 21, and 28 days) by forelimb and hindlimb placing tests and body swing test, which are widely accepted as standard tests indicative of functional recovery after a stroke model.
For the forelimb placing test, the examiner held the rat close to a tabletop and scored the rat's ability to place the forelimb on the tabletop in response to whisker, visual, tactile, or proprioceptive stimulation. Similarly, for the hindlimb placing test, the examiner assessed the rat's ability to place the hindlimb on the tabletop in response to tactile and proprioceptive stimulation. […]
For the body swing test, the rat was held approximately one inch from the base of its tail. […] A swing was recorded whenever the rat moved its head out of the vertical axis to either side. The rat must return to the vertical position for the next swing to be counted. Thirty (30) total swings were counted. […]
The behavior was evaluated by giving the score ranging in the parentheses after each test: • Forelimb placing test (0-12), consisting of whisker tactile placing (0-2); visual placing (forward, sideways) (0-4); tactile placing (dorsal, lateral) (0-4); and proprioceptive placing (0-2); • Hindlimb placing test (0-6), consisting of tactile placing (dorsal, lateral) (0-4); and proprioceptive placing (0-2). […]

[1] = treatment from 1 h after occlusion, up to 28 days

## c1cncc(C2=NOCC(CN3CCCCC3)N2)c1 (stereo not shown) [iroxanadine, 5,6-dihydro-5(1-piperidinyl)-methyl-3-(3-pyridyl)-4H-1,2,4-oxadiazine]
Days 1, 3, and 7
  Forelimb Placing Test, recovery scores at early time points compared to vehicle: superior to those of the vehicle group
[1]
  Body Swing Test, recovery compared to vehicle group: trend toward enhancement of recovery
  Forelimb Placing Test, recovery compared to vehicle group: non-significant trend of enhanced recovery
  Hindlimb Placing Test, recovery compared to vehicle group: superior to the vehicle group
